Measured values published in patent publication US20250295631A1, “NOVEL TREATMENT” (University of Liverpool, priority 2022, published 2025).
Some of these results come from one statement about several compounds together.

Test system: ex vivo porcine corneas
Experiment: Ex vivo tensile testing of cross-linked porcine corneas (elastic modulus)
Set-up: species or system domestic pig (Sus domesticus)
Conditions: strain range 5-10%
Experimental: Eyes of the domestic pig (Sus domesticus) are collected from a local abattoir 0-4 hours post-mortem. Eyes are cleaned of excess tissue and fat and washed in PBS containing 200 U penicillin and 0.2 mg/ml streptomycin and 5 μg/ml amphotericin B (Merch Life Science, Dorset, UK). The eyes are stored in a petri dish containing the PBS antibiotic/antimycotic solution, corneas facing up, at 4° C. overnight.
The porcine eyes are removed from 4° C. and allowed to warm to room temperature. One-to-two drops of Minims Proxymetacaine hydrochloride 0.5% w/v (Bosch & Lomb, Surrey, UK) were applied to the cornea for 15 minutes, with additional drops added ever 5 minutes and then 2-3 minutes before treatment. […]
The anterior section of the eye was removed by cutting around the globe 5-10 mm posteriorly from the limbus. […] Tissue thickness and width (determined as the distance between cutting edges) were measured with calipers.
The tissue strip was mounted in the grips of a Univert tensile tester (CellScale, Ontario, Canada) with a 50 N load cell. […] Stress-strain curves were plotted and the elastic modulus was determined at a range of strains: 5-10%, 10-15%, 20-25% and 30-35%. Data were trimmed to 3% from the strain at ultimate tensile strain and 6 term polynomial equations we determined from each curve. […]

Molecule | Percentage Change in Modulus Compared to Control (Dresden UV/riboflavin protocol) [%] | Percentage Change in Modulus Compared to Control (0.2M BS3, 15 min treatment, listed as BS^3) [%]
Cc1cc2nc3c(=O)[nH]c(=O)nc-3n(C[C@H](O)[C@H](O)[C@H](O)CO)c2cc1C [Dresden, riboflavin, reference compound] | > 100 | 
bis(sulfosuccinimidyl)suberate [BS3] |  | > 100
